Literature values in patent publication US12060336B1, “(2E)-4-[(4-chlorophenyl)amino]-N-phenyl-2-(phenylimino)-1,3,5-dioxazepine-7-carboxamide as an eco-friendly insecticidal agent against Spodoptera littoralis (boisd.)” (King Faisal University, priority 2023, dated 2024).
Some entries share one result that the patent states for a list of compounds.

System: aquatic insects
Conditions: cited from earlier work

| Compound | LC50 [µg/mL] |
| --- | --- |
| COC(C)(C)CCC[C@H](C)C/C=C/C(C)=C/C(=O)OC(C)C (racemic) [methoprene] | < 100 |
| CCOC(=O)NCCOc1ccc(Oc2ccccc2)cc1 [fenoxycarb] | < 100 |
